From patent US12419871B2, “Biomolecules involved in Alzheimer's disease” (ELECTROPHORETICS LIMITED, priority 2015, dated 2025)

B1: O95573 (protein, UniProt O95573 1-720, looked up)
chain: MNNHVSSKPSTMKLKHTINPILLYFIHFLISLYTILTYIPFYFFSESRQEKSNRIKAKPVNSKPDSAYRSVNSLDGLASVLYPGCDTLDKVFTYAKNKFKNKRLLGTREVLNEEDEVQPNGKIFKKVILGQYNWLSYEDVFVRAFNFGNGLQMLGQKPKTNIAIFCETRAEWMIAAQACFMYNFQLVTLYATLGGPAIVHALNETEVTNIITSKELLQTKLKDIVSLVPRLRHIITVDGKPPTWSEFPKGIIVHTMAAVEALGAKASMENQPHSKPLPSDIAVIMYTSGSTGLPKGVMISHSNIIAGITGMAERIPELGEEDVYIGYLPLAHVLELSAELVCLSHGCRIGYSSPQTLADQSSKIKKGSKGDTSMLKPTLMAAVPEIMDRIYKNVMNKVSEMSSFQRNLFILAYNYKMEQISKGRNTPLCDSFVFRKVRSLLGGNIRLLLCGGAPLSATTQRFMNICFCCPVGQGYGLTESAGAGTISEVWDYNTGRVGAPLVCCEIKLKNWEEGGYFNTDKPHPRGEILIGGQSVTMGYYKNEAKTKADFFEDENGQRWLCTGDIGEFEPDGCLKIIDRKKDLVKLQAGEYVSLGKVEAALKNLPLVDNICAYANSYHSYVIGFVVPNQKELTELARKKGLKGTWEELCNSCEMENEVLKVLSEAAISASLEKFEIPVKIRLSPEPWTPETGLVTDAFKLKRKELKTHYQADIERMYGRK
modifications: full-length
B2: P10619 (protein, UniProt P10619 1-480, looked up)
chain: MIRAAPPPLFLLLLLLLLLVSWASRGEAAPDQDEIQRLPGLAKQPSFRQYSGYLKGSGSKHLHYWFVESQKDPENSPVVLWLNGGPGCSSLDGLLTEHGPFLVQPDGVTLEYNPYSWNLIANVLYLESPAGVGFSYSDDKFYATNDTEVAQSNFEALQDFFRLFPEYKNNKLFLTGESYAGIYIPTLAVLVMQDPSMNLQGLAVGNGLSSYEQNDNSLVYFAYYHGLLGNRLWSSLQTHCCSQNKCNFYDNKDLECVTNLQEVARIVGNSGLNIYNLYAPCAGGVPSHFRYEKDTVVVQDLGNIFTRLPLKRMWHQALLRSGDKVRMDPPCTNTTAASTYLNNPYVRKALNIPEQLPQWDMCNFLVNLQYRRLYRSMNSQYLKLLSSQKYQILLYNGDVDMACNFMGDEWFVDSLNQKMEVQRRPWLVKYGDSGEQIAGFVKEFSHIAFLTIKGAGHMVPTDKPLAAFTMFSRFLNKQPY
modifications: full-length
B3: Q9NZW5 (protein, UniProt Q9NZW5 1-540, looked up)
chain: MQQVLENLTELPSSTGAEEIDLIFLKGIMENPIVKSLAKAHERLEDSKLEAVSDNNLELVNEILEDITPLINVDENVAELVGILKEPHFQSLLEAHDIVASKCYDSPPSSPEMNNSSINNQLLPVDAIRILGIHKRAGEPLGVTFRVENNDLVIARILHGGMIDRQGLLHVGDIIKEVNGHEVGNNPKELQELLKNISGSVTLKILPSYRDTITPQQVFVKCHFDYNPYNDNLIPCKEAGLKFSKGEILQIVNREDPNWWQASHVKEGGSAGLIPSQFLEEKRKAFVRRDWDNSGPFCGTISSKKKKKMMYLTTRNAEFDRHEIQIYEEVAKMPPFQRKTLVLIGAQGVGRRSLKNRFIVLNPTRFGTTVPFTSRKPREDEKDGQAYKFVSRSEMEADIKAGKYLEHGEYEGNLYGTKIDSILEVVQTGRTCILDVNPQALKVLRTSEFMPYVVFIAAPELETLRAMHKAVVDAGITTKLLTDSDLKKTVDESARIQRAYNHYFDLIIINDNLDKAFEKLQTAIEKLRMEPQWVPISWVY
modifications: full-length
B4: Q8N3F0 (protein, UniProt Q8N3F0 1-131, looked up)
chain: MDFQQLADVAEKWCSNTPFELIATEETERRMDFYADPGVSFYVLCPDNGCGDNFHVWSESEDCLPFLQLAQDYISSCGKKTLHEVLEKVFKSFRPLLGLPDADDDAFEEYSADVEEEEPEADHPQMGVSQQ
modifications: full-length
B5: Q5HYI7 (protein, UniProt Q5HYI7 1-312, looked up)
chain: MAAPLELSCWGGGWGLPSVHSESLVVMAYAKFSGAPLKVNVIDNTWRGSRGDVPILTTEDDMVSQPAKILNFLRKQKYNADYELSAKQGADTLAYIALLEEKLLPAVLHTFWVESDNYFTVTKPWFASQIPFPLSLILPGRMSKGALNRILLTRGQPPLYHLREVEAQIYRDAKECLNLLSNRLGTSQFFFGDTPSTLDAYVFGFLAPLYKVRFPKVQLQEHLKQLSNLCRFCDDILSSYFRLSLGGISPAGQETVDANLQKLTQLVNKESNLIEKMDDNLRQSPQLPPRKLPTLKLTPAEEENNSFQRLSP
modifications: full-length
B6: Q13825 (protein, UniProt Q13825 1-339, looked up)
chain: MAAAVAAAPGALGSLHAGGARLVAACSAWLCPGLRLPGSLAGRRAGPAIWAQGWVPAAGGPAPKRGYSSEMKTEDELRVRHLEEENRGIVVLGINRAYGKNSLSKNLIKMLSKAVDALKSDKKVRTIIIRSEVPGIFCAGADLKERAKMSSSEVGPFVSKIRAVINDIANLPVPTIAAIDGLALGGGLELALACDIRVAASSAKMGLVETKLAIIPGGGGTQRLPRAIGMSLAKELIFSARVLDGKEAKAVGLISHVLEQNQEGDAAYRKALDLAREFLPQGPVAMRVAKLAINQGMEVDLVTGLAIEEACYAQTIPTKDRLEGLLAFKEKRPPRYKGE
modifications: full-length
B7: Q9H936 (protein, UniProt Q9H936 1-323, looked up)
chain: MADKQISLPAKLINGGIAGLIGVTCVFPIDLAKTRLQNQQNGQRVYTSMSDCLIKTVRSEGYFGMYRGAAVNLTLVTPEKAIKLAANDFFRHQLSKDGQKLTLLKEMLAGCGAGTCQVIVTTPMEMLKIQLQDAGRIAAQRKILAAQGQLSAQGGAQPSVEAPAAPRPTATQLTRDLLRSRGIAGLYKGLGATLLRDVPFSVVYFPLFANLNQLGRPASEEKSPFYVSFLAGCVAGSAAAVAVNPCDVVKTRLQSLQRGVNEDTYSGILDCARKILRHEGPSAFLKGAYCRALVIAPLFGIAQVVYFLGIAESLLGLLQDPQA
modifications: full-length
B8: P07108 (protein, UniProt P07108 1-87, looked up)
chain: MSQAEFEKAAEEVRHLKTKPSDEEMLFIYGHYKQATVGDINTERPGMLDFTGKAKWDAWNELKGTSKEDAMKAYINKVEELKKKYGI
modifications: full-length
B9: Q10713 (protein, UniProt Q10713 1-525, looked up)
chain: MAAVVLAATRLLRGSGSWGCSRLRFGPPAYRRFSSGGAYPNIPLSSPLPGVPKPVFATVDGQEKFETKVTTLDNGLRVASQNKFGQFCTVGILINSGSRYEAKYLSGIAHFLEKLAFSSTARFDSKDEILLTLEKHGGICDCQTSRDTTMYAVSADSKGLDTVVALLADVVLQPRLTDEEVEMTRMAVQFELEDLNLRPDPEPLLTEMIHEAAYRENTVGLHRFCPTENVAKINREVLHSYLRNYYTPDRMVLAGVGVEHEHLVDCARKYLLGVQPAWGSAEAVDIDRSVAQYTGGIAKLERDMSNVSLGPTPIPELTHIMVGLESCSFLEEDFIPFAVLNMMMGGGGSFSAGGPGKGMFSRLYLNVLNRHHWMYNATSYHHSYEDTGLLCIHASADPRQVREMVEIITKEFILMGGTVDTVELERAKTQLTSMLMMNLESRPVIFEDVGRQVLATRSRKLPHELCTLIRNVKPEDVKRVASKMLRGKPAVAALGDLTDLPTYEHIQTALSSKDGRLPRTYRLFR
modifications: full-length
B10: O95865 (protein, UniProt O95865 1-285, looked up)
chain: MGTPGEGLGRCSHALIRGVPESLASGEGAGAGLPALDLAKAQREHGVLGGKLRQRLGLQLLELPPEESLPLGPLLGDTAVIQGDTALITRPWSPARRPEVDGVRKALQDLGLRIVEIGDENATLDGTDVLFTGREFFVGLSKWTNHRGAEIVADTFRDFAVSTVPVSGPSHLRGLCGMGGPRTVVAGSSDAAQKAVRAMAVLTDHPYASLTLPDDAAADCLFLRPGLPGVPPFLLHRGGGDLPNSQEALQKLSDVTLVPVSCSELEKAGAGLSSLCLVLSTRPHS
modifications: full-length

Assay: TMTcalibrator quantification of regulated proteins in AD CSF versus control
Set-up: species or system human
Conditions: CSF of AD patient versus control; non-modified peptides of each protein summed for three control and three AD cases
For B1, the “Log2 AD/Control” value was 0.82.
With B2 the “Log2 AD/Control” value was 0.70.
In the case of B3, the “Log2 AD/Control” value is reported as 0.72.
With B4 the “Log2 AD/Control” value was 0.89.
With B5 the “Log2 AD/Control” value was 1.07.
With B6 the “Log2 AD/Control” value was 1.50.
With B7 the “Log2 AD/Control” value was 0.66.
For B8, the “Log2 AD/Control” value was 1.18.
In the case of B9, the “Log2 AD/Control” value is reported as 0.70.
In the case of B10, the “Log2 AD/Control” value is reported as 0.83.
